Measured values published in US20220218678A1, “USE OF 1-PHENYL-2-PYRIDINYL ALKYL ALCOHOL DERIVATIVES FOR TREATING CYSTIC FIBROSIS” (CHIESI FARMACEUTICI S.p.A., priority 2017, published 2022).
Some entries share one result that the patent states for a list of compounds.

Amino acid sequences for entries named in this document (tags omitted).
UniProt P13569, whole entry: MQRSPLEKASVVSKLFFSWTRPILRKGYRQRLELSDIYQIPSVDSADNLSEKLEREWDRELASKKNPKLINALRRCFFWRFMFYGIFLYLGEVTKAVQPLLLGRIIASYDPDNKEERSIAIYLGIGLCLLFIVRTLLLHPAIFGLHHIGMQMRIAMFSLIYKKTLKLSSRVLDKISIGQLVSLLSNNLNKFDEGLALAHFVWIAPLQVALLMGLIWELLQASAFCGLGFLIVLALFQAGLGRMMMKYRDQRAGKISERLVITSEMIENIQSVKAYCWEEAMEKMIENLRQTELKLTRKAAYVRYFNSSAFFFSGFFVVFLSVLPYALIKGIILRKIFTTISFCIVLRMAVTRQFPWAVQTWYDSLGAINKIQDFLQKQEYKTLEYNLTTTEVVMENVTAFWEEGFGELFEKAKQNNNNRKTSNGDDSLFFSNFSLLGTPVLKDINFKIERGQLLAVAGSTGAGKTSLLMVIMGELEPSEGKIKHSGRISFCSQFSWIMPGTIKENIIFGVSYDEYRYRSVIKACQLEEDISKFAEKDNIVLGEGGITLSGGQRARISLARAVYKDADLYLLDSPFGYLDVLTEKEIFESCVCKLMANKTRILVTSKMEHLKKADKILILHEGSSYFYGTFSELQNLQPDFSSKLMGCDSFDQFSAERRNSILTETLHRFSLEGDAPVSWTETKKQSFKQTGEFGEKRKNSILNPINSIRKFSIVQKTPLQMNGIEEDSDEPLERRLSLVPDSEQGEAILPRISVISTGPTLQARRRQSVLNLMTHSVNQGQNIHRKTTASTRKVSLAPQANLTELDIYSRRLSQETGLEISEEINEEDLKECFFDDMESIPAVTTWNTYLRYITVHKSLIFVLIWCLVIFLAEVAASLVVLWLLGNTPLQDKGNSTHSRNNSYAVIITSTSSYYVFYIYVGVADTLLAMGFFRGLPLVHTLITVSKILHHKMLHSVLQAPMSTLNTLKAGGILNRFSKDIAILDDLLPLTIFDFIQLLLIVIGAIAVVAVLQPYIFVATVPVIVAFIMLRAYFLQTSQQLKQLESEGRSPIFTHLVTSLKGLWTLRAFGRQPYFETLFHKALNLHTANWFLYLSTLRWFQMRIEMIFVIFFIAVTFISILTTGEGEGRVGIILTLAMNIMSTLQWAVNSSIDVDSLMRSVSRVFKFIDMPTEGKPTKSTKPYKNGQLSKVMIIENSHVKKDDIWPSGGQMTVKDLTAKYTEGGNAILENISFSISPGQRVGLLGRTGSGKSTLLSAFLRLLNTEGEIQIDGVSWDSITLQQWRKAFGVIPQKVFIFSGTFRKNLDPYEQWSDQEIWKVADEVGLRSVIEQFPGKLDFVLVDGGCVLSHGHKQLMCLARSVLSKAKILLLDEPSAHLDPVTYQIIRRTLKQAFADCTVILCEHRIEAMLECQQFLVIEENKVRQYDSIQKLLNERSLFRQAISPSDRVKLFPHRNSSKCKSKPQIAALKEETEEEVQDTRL

Biological target: T1, CFTR channel (Homo sapiens, UniProt P13569)
T1 construct: the TEER assay was performed with these agents on 16HBE14o− bronchial epithelial cells (BEC); endogenous in cells; host or cells: 16HBE14o− human bronchial epithelial cell line (provided by P. Davis)
Assay: Transepithelial electrical resistance (TEER) assay on 16HBE14o− bronchial epithelial cells
Format: cell-based
Settings: 16HBE14o− cells, 10, 30 and 60 min; VRT 770 5 μM; IBMX 100 μM + Forskolin 10 μM

`CC(C)(C)c1cc(C(C)(C)C)c(NC(=O)c2c[nH]c3ccccc3c2=O)cc1O` [Ivacaftor] was tested, and the “decrease in trans-endothelial electrical resistance as compared to control” value was 60-70%.
